# Reference: the supplement of paper PMC12889115
# Some of the results follow. These are raw signals, not scaled to a control.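 First-pass screen: polymyxin B was added at a level that permeabilizes the Salmonella outer membrane while sparing the inner membrane. DMSO wells, with and without polymyxin B, defined maximum growth. Because plates differed from one another, each plate's data were ranked separately and the compounds with the lowest OD600 were carried forward as hits.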
# Test system: Salmonella enterica serovar Typhimurium SL1344
# Experiment: bacterial growth OD600 after 18 h with compound and polymyxin B; higher = more bacterial growth (less inhibition)
# Conditions: 50 µM, Mueller-Hinton broth
SMILES,bacterial growth OD600 (polymyxin B 1 µg/mL),bacterial growth OD600 (polymyxin B 0.75 µg/mL)
COC(=O)[C@@H]1C[C@H](C(=O)NCc2cccc(OC)c2)[C@H](c2ccccc2F)N1C,0.98,–
O=C(Nc1ccc(-c2cccc(F)c2)cc1)C1CCCN(CC2CC2)C1 (stereo not given),–,0.008
COc1cccc(-n2cc(CN(C)Cc3nc(-c4cccs4)no3)cn2)c1,0.851,–
COCCNC(=O)c1ccc(OC)cc1OC1CCN(Cc2cccc(OC)c2)CC1,1.25,–
COC(=O)c1ccc(CN2CCC(n3nccc3NC(=O)CC(C)C)CC2)cc1,1,–
CCN1C(=O)CC(CC(=O)N2CCN(Cc3ccccn3)CC2)(c2cccc(C(F)(F)F)c2)C1=O (stereo not given),–,0.831
CSCC(=O)N1CCCC(C(=O)c2ccc(-c3ccccc3)cc2)C1 (stereo not given),0.011,–
COc1cc(NC(=O)CCC2CCCN(Cc3ccc(F)c(OC)c3)C2)cc(OC)c1 (stereo not given),1.13,–
Cc1nn(C)c(C)c1CN(C)C(=O)c1coc(COc2ccc(F)cc2)n1,1.03,–
CN1CCN([C@@H]2CCN(Cc3ccc(Cn4cccn4)cc3)C[C@H]2O)CC1,–,0.865
CC(C)N(Cc1nccn1C)c1nc2nonc2nc1NCc1ccccc1,–,0.334
COCC(C)N1CCC(Oc2ccc(C(=O)NC3CCCC3)cc2Cl)CC1 (stereo not given),1.12,–
Cc1ccccc1N1CCN(C2CCCN(C(=O)CCC(F)(F)F)C2)CC1 (stereo not given),0.937,–
C=CCS(=O)(=O)N1CCCC(CCc2ccc(F)cc2F)C1 (stereo not given),–,0.082
CCOC(=O)C1(Cc2ccccc2F)CCCN(C(=O)c2c(C)nc3sccn23)C1 (stereo not given),0.001,–
CCC1C(=O)NCCN1C(=O)c1ccc(OC2CCN(C(=O)C3CC3)CC2)cc1 (stereo not given),0.901,–
O=C(c1ccccc1F)N1CCC(C2(Cc3ccc(F)cc3)NC(=O)N(C3CCOC3)C2=O)CC1 (stereo not given),–,0.885
CC(CNCc1cc(NS(C)(=O)=O)cc(C(=O)Nc2ccccc2)c1)c1ccccc1 (stereo not given),–,0.962
O=C(/C=C/c1ccc(F)c(F)c1)NCC1CCC2(CCN(Cc3ccccc3F)CC2)O1 (stereo not given),–,0.819
CCN(C(=O)C1CCOCC1)C(Cc1ccccc1)C1CCN(Cc2c(F)ccc(F)c2F)CC1 (stereo not given),–,0.928
O=C(c1ccoc1)N1CCCC(N2CCN(Cc3ccc4c(c3)OCO4)CC2)C1 (stereo not given),0.96,–
CCOC(=O)C1(CC2CCCCO2)CCN(C(=O)Nc2ccc(SC)cc2)CC1 (stereo not given),0.787,–
COc1ccccc1C1CN(CCNC(=O)c2ccc(C(C)=O)cc2)Cc2ccccc2O1 (stereo not given),–,0.631
COc1ccc(CCN2C(=O)O[C@@H]3CN(C(=O)NCc4ccccc4)C[C@@H]32)cc1,0.886,–
COCCN(Cc1nc(-c2cc(F)ccc2F)oc1C)C(C)C,0.956,–
Cc1cccc(C)c1OCc1cc(C(=O)N2CCCC(C(=O)c3nccn3C)C2)no1 (stereo not given),0.922,–
Cc1cccc(OCC(=O)N2CCC(C3CCN(CC(C)C)CC3)C2)c1 (stereo not given),–,0.966
O=C(c1cc(COc2c(F)cccc2F)on1)N1CCN(C2CCCCC2)CC1,0.869,–
CCN(CC1CCCO1)C(=O)CC1(c2cccc(C(F)(F)F)c2)CC(=O)N(CC)C1=O (stereo not given),–,0.735
CN(Cc1ccccc1)C(=O)CCC1CCN(C(=O)CCN2CCCO2)CC1,0.979,–

# Random excerpt: 2 entries already listed, in no set order.
SMILES,bacterial growth OD600 (polymyxin B 1 µg/mL),bacterial growth OD600 (polymyxin B 0.75 µg/mL)
CN(Cc1ccccc1)C(=O)CCC1CCN(C(=O)CCN2CCCO2)CC1,0.979,–
CCOC(=O)C1(Cc2ccccc2F)CCCN(C(=O)c2c(C)nc3sccn23)C1 (stereo not given),0.001,–
